Test results from paper PMC11191273.

The chains behind the UniProt entries cited, without tags or fusion partners.
UniProt Q9UMX0: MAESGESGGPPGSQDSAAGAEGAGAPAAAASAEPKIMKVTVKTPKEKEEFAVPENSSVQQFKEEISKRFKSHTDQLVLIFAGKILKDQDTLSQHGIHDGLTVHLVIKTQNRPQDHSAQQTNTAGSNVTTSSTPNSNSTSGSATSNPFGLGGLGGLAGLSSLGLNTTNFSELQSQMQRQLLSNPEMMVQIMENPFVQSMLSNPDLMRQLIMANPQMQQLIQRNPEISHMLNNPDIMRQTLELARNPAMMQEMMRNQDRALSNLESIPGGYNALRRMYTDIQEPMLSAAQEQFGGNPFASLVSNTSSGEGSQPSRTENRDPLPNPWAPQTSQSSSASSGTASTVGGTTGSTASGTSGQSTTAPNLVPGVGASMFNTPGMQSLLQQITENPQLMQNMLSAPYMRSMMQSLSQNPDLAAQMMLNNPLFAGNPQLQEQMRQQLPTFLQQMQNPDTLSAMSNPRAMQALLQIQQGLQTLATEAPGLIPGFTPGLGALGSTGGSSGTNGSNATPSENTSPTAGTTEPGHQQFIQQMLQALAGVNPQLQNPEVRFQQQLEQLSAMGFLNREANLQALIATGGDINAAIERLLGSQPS
UniProt P18085: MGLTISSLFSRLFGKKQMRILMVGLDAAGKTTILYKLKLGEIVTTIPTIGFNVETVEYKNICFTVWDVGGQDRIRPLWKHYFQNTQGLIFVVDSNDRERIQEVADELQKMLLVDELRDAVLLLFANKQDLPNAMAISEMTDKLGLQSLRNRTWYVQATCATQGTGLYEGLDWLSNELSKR
UniProt P60842: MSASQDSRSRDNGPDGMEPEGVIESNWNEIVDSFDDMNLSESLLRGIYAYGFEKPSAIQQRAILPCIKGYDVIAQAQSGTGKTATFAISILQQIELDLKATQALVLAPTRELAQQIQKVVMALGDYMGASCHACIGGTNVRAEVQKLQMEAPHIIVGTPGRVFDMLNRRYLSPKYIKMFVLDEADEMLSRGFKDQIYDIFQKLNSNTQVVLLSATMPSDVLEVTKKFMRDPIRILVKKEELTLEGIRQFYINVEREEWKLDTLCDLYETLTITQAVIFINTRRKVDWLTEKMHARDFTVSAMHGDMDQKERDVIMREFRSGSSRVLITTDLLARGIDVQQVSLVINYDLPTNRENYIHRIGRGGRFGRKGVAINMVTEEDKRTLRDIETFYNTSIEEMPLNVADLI
UniProt P35579: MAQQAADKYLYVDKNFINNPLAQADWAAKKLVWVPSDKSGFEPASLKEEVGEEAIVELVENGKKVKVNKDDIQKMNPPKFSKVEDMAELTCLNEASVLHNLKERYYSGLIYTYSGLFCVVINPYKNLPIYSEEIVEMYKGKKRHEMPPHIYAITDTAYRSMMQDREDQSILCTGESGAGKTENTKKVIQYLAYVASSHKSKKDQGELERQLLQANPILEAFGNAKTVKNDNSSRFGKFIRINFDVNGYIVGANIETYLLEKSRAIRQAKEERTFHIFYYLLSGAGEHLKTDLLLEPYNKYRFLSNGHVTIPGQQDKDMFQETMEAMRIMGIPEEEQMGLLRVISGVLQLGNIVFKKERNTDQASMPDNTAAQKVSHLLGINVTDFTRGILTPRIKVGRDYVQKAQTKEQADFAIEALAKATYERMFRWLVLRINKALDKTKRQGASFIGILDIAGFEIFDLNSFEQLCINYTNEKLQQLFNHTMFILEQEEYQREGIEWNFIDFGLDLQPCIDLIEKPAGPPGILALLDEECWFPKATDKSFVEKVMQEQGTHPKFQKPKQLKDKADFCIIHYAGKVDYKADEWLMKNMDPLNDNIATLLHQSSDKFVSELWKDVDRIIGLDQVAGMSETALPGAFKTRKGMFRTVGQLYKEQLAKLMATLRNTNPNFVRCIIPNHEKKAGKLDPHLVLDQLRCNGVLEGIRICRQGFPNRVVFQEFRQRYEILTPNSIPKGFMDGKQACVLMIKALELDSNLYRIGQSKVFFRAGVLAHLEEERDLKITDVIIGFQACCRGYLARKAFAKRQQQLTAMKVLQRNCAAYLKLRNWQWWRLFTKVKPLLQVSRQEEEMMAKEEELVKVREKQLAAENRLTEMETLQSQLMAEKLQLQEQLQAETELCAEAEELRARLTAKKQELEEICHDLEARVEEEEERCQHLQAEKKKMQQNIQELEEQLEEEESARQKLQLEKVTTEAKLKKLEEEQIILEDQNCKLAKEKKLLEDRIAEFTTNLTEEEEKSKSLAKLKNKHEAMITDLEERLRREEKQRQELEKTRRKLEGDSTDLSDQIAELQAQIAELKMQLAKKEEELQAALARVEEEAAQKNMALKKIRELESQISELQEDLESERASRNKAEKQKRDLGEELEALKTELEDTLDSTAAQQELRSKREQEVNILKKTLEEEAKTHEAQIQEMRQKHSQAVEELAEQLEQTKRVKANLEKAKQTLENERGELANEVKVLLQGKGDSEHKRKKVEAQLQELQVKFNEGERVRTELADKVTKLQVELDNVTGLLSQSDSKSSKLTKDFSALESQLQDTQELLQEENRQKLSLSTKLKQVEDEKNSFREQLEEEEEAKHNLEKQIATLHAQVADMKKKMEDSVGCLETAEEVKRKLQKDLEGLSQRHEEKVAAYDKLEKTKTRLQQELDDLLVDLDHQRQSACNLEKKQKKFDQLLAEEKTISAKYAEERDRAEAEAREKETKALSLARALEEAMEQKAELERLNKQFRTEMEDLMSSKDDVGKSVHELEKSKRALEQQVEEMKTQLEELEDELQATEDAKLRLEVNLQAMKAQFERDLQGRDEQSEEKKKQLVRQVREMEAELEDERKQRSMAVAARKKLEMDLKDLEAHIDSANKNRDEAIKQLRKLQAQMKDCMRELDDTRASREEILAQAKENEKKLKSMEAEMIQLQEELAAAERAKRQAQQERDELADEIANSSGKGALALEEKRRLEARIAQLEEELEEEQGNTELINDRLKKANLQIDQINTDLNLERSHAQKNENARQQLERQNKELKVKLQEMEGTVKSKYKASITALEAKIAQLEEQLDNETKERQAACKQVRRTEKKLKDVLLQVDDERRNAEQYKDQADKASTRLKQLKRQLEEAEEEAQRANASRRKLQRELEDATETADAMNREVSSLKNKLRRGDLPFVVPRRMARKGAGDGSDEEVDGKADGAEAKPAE
UniProt P60900: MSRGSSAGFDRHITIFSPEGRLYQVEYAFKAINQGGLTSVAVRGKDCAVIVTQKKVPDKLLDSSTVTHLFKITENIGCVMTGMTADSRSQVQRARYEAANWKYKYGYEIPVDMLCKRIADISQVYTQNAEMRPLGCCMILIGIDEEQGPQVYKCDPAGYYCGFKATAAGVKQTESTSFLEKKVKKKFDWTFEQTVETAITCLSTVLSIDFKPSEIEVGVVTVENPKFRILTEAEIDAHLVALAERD

target: 3Flag-UBQLN1 (Ubiquilin1, Flag-tagged) (human) (UniProt Q9UMX0); assay: affinity purification with mass spectrometry; anti-Flag immunoprecipitation from lysate (NETN buffer) of hESCs stably expressing 3Flag-UBQLN1, Protein G beads, SDS-PAGE, LC/MS

Row | binding | Substance
1 | binds | ARF4 (from UniProt P18085 1-180)
2 | binds | EIF4A1 (from UniProt P60842 1-406)
3 | binds | MYH9 (from UniProt P35579 1-1960)
4 | binds | PSMA6 (from UniProt P60900 1-246)

Results are given in words; binding and its absence hold for the method and conditions named. In cells and extracts the contact can be indirect. These calls come from enrichment with a bait or labelling near it, and not all partners need be listed.
